These are yes or no findings as the source states them, for the method shown. In cells and extracts the contact can be indirect. Binding calls can cover weak binding; strength is not graded here. Sequences can lack the tags named with a protein.
Target: T1, MBP-S1A4 (Oryza glaberrima)
T1 sequence: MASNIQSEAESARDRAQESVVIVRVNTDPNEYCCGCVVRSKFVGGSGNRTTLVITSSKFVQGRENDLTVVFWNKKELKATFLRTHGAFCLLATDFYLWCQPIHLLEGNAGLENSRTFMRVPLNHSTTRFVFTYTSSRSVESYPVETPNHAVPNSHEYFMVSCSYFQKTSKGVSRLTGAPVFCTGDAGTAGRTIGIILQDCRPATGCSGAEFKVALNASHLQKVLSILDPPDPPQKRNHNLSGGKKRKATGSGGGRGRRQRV
Assay: pull-down; MBP-S1A4 from E. coli lysate held on amylose resin as bait, mixed with E. coli lysates containing GST-S1A6 or GST-S1TPR; PBS pH 7.4; western blot with anti-MBP and anti-GST; only the target purified

Row | binding | Substance
1 | binds | GST-S1A6 (Oryza glaberrima)
2 | binds | GST-S1TPR (Oryza glaberrima)
